Source: patent US20080103209A1, “Compounds And Methods For Treating Non-Inflammatory Pain Using Ppar Alpha Agonists” (The Regents of The University of California, priority 2004, published 2008)
At least one structure is not confirmed: it was looked up by name or label, or the drawing left a doubt.

Test system: mice
Test: Formalin-evoked pain behavior (hind paw licking)
Assay type: in vivo, mouse
Protocol: Administration of formalin into the mouse hind paw evokes a pain behavior consisting of two temporally distinct phases of licking and flexing of the injected limb (Dubuisson, et al., Pain 4, 161-74 (1977)). The first phase, which starts immediately after formalin injection and lasts 5-10 min, is due to activation of nociceptive fibers and is accompanied by the local release of nitric oxide and adenosine [Dickenson, et al., Neurosci Lett 83, 207-11 (1987); Omote, et al., Brain Res 787, 161-4 (1998); Omote et al., 2000; Liu, et al., J Neurochem 80, 562-70 (2002)]. Following a quiescent interval of 10-15 minutes, a second phase of nociceptive behavior appears, which is associated with local inflammation [Rosland, et al., Pain 42, 235-42 (1990)] and central sensitization [Coderre, et al., J Neurosci 12, 3665-70 (1992)]. […] (2001); Farquuar-Smith, 2002]. […] The effects of PEA in C57BL/6J mice in which the PPARα gene had been deleted by homologous recombination (PPARα^−/−)[Lee, et al., Mol Cell Biol 15, 3012-22 (1995)] were examined to determine whether PPARα contributes to these properties.
Although PPARα is known to regulate the inflammatory response [Devchand, et al., Nature 384, 39-43. (1996); Cabrero, et al., Curr Drug Targets Inflamm Allergy 1, 243-8 (2002); Berger, et al., Annu Rev Med 53, 409-35 (2002); Chinetti, et al., Inflamm Res 49, 497-505 (2000)], its roles in the modulation of acute nociceptive pain remain unexplored. A series of structurally diverse PPAR-α agonists were tested for their ability to reduce pain behavior in an animal model of chemical tissue damage. Injection of formalin into the mouse hind paw evokes a nocifensive behavior consisting of two distinct phases. The first phase results from direct activation of nociceptive fibers and starts immediately after formalin administration, while the second phase develops over a period of approximately 60 min and is associated with local inflammation and central sensitization.
Mice received intraplantar injections of formalin (5% vol/vol, 10 μl) in saline containing polyethylene glycol (5%) and Tween 80 (5%). The duration of paw licking was monitored by an observer for periods of 0-15 min (early or first phase) and 15-45 min (late or second phase) immediately after formalin administration.
Formalin test. Formalin (5%, 10 μl)-induced paw licking was monitored for 0-15 min (first phase) and 15-45 min (second phase) as described (Calignano, et al., Nature 394, 277-81 (1998).

| Compound | formalin-evoked nocifensive behavior, agent alone (1-10 μg i.pl., Swiss mice) | effect on anti-nociceptive response to PEA (50 μg i.pl.) (geldanamycin 10 μg/paw, Swiss mice, formalin test) | effect on GW7647 analgesia in the formalin test (mouse, in vivo) | first- and second-phase nociception (Swiss mice, i.pl. together with formalin, GW7647 0.1-50 μg, Wy-14643 50-200 μg, fenofibric acid 100-400 μg) |
| --- | --- | --- | --- | --- |
| COC1=C2C[C@@H](C)C[C@H](OC)[C@H](O)[C@@H](C)/C=C(\C)[C@H](OC(N)=O)[C@@H](OC)/C=C\C=C(/C)C(=O)NC(=CC1=O)C2=O [geldanamycin] | did not affect | abolished | blocked | – |
| CC(C)(Oc1ccc(C(=O)c2ccc(Cl)cc2)cc1)C(=O)O [fenofibric acid] | – | – | – | ineffective at all doses tested |
